Data from PubChem BioAssay AID224 (DTP/NCI, 2004).
The list does not hold the whole screen: it is rich in T/C values a quarter to a half above the control, in often repeated tests (any T/C) and in doses without a T/C. Further doses and runs are listed elsewhere. T/C is the treated group as % of the vehicle group. Some doses have a count of surviving animals in place of a T/C: the source files T/C as zero there, which appears to mark a toxic dose or a test without result, not a measured value. Some survivor counts are full or nearly so, which does not show that the dose was tolerated: survival well below the control is almost never listed, so the zero probably covers shortened survival too. Survivors were counted at the toxicity check, usually on the fifth day, unless a day is given; later deaths do not show. Schedules are NCI's codes, taken here to give the interval after Q, in days (D) or hours (H), and the number of doses after X. Some schedules carry Z or #; the key to these is not given. Some entries hold several experiments; the results are listed from low to high. For survival time, the PubChem record calls one and a half times the control and up active, and a quarter to a half above the control has no call in these data; cut-offs in other NCI protocols can differ.

System: P335 leukemia ip, BDF1 mice, survival T/C %
Assay: NCI In Vivo Anticancer Drug Screen. Data for tumor model P335 Leukemia (intraperitoneal) in B6D2F1 (BDF1) mice
Conditions: T/C endpoint: mean survival time, higher T/C = longer survival
Protocol: The antitumor activity of compounds was measured in mice bearing transplantable tumors. Survival or tumor size were measured and the results are expressed as the measurement made in the treated group (T) divided by the measurement made in the vehicle treated control group (C). The tumor model used in this assay is P335 Leukemia (intraperitoneal) in B6D2F1 (BDF1) mice

[1] = dose: 25.0 mg/kg/injection, schedule: Q01DX Z (ip), vehicle: carboxymethylcellulose (CMC)
[2] = dose: 50.0 mg/kg/injection, schedule: Q01DX Z (ip), vehicle: carboxymethylcellulose (CMC)
[3] = dose: 100.0 mg/kg/injection, schedule: Q01DX Z (ip), vehicle: carboxymethylcellulose (CMC)
[4] = dose: 200.0 mg/kg/injection, schedule: Q01DX Z (ip), vehicle: carboxymethylcellulose (CMC)

CCOC(N)=O
T/C (dose: 23.43 mg/kg/injection, schedule: Q01DX Z (ip), vehicle: saline): 131 % of control | T/C (dose: 375.0 mg/kg/injection, schedule: Q01DX Z (ip), vehicle: saline): 125 % of control | survivor count (dose: 1500.0 mg/kg/injection, schedule: Q01DX Z (ip), vehicle: saline): 4 of 6

CCOC(=O)NP(=O)(N1CC1(C)C)N1CC1(C)C (stereo not drawn)
survivor count (dose: 62.5 mg/kg/injection, schedule: Q01DX Z (ip), vehicle: carboxymethylcellulose (CMC)): 6 of 6 | survivor count (dose: 500.0 mg/kg/injection, schedule: Q01DX Z (ip), vehicle: carboxymethylcellulose (CMC)): 5 of 6

CN(C)c1ccc(Nc2c3ccccc3nc3ccccc23)cc1
survivor count [1]: 6 of 6 | survivor count [2]: 6 of 6 | survivor count [3]: 5 of 6 | survivor count [4]: 2 of 6

CC(=O)O[C@]1(C(C)=O)CC[C@H]2[C@@H]3C[C@H](C)C4=CC(=O)C=C[C@]4(C)[C@@]3(F)[C@@H](O)C[C@@]21C
survivor count (dose: 10.0 mg/kg/injection, schedule: Q01DX Z (sc), vehicle: steroid suspending solution): 6 of 6 | survivor count (dose: 40.0 mg/kg/injection, schedule: Q01DX Z (sc), vehicle: steroid suspending solution): 6 of 6 | survivor count (dose: 80.0 mg/kg/injection, schedule: Q01DX Z (sc), vehicle: steroid suspending solution): 6 of 6

CC(=O)[C@H]1CC[C@H]2[C@@H]3C[C@H](C)C4=CC(=O)CC[C@]4(C)[C@H]3C(=O)C[C@]12C
survivor count (dose: 100.0 mg/kg/injection, schedule: Q01DX Z (sc), vehicle: steroid suspending solution): 6 of 6

N#CCSc1ncnc2nc[nH]c12
survivor count (dose: 25.0 mg/kg/injection, schedule: Q01DX Z (ip), vehicle: methylcellulose (MC)): 6 of 6 | survivor count (dose: 50.0 mg/kg/injection, schedule: Q01DX Z (ip), vehicle: methylcellulose (MC)): 6 of 6 | survivor count (dose: 100.0 mg/kg/injection, schedule: Q01DX Z (ip), vehicle: methylcellulose (MC)): 6 of 6 | survivor count [4]: 2 of 6 | survivor count (dose: 400.0 mg/kg/injection, schedule: Q01DX Z (ip), vehicle: carboxymethylcellulose (CMC)): 0 of 6

CS(=O)(=O)OCCCl
survivor count (dose: 12.5 mg/kg/injection, schedule: Q01DX Z (ip), vehicle: carboxymethylcellulose (CMC)): 6 of 6 | survivor count [1]: 5 of 6 | survivor count [2]: 4 of 6 | survivor count [3]: 0 of 6

CC/C(=C(/CC)c1ccc(O)cc1)c1ccc(O)cc1
T/C (dose: 31.25 mg/kg/injection, schedule: Q01DX Z (sc), vehicle: steroid suspending solution): 131 % of control | survivor count (dose: 62.5 mg/kg/injection, schedule: Q01DX Z (sc), vehicle: steroid suspending solution): 3 of 6 | survivor count (dose: 125.0 mg/kg/injection, schedule: Q01DX Z (sc), vehicle: steroid suspending solution): 4 of 6 and 5 of 6 | survivor count (dose: 250.0 mg/kg/injection, schedule: Q01DX Z (sc), vehicle: steroid suspending solution): 6 of 6 | survivor count (dose: 500.0 mg/kg/injection, schedule: Q01DX Z (sc), vehicle: steroid suspending solution): 5 of 6 | survivor count (dose: 1000.0 mg/kg/injection, schedule: Q01DX Z (sc), vehicle: steroid suspending solution): 1 of 6

O=C(Nc1ccc(NC2=NCCN2)cc1)c1ccc(C(=O)Nc2ccc(NC3=NCCN3)cc2)cc1
survivor count (dose: 0.25 mg/kg/injection, schedule: Q01DX Z (ip), vehicle: saline): 2 of 6 | survivor count (dose: 0.5 mg/kg/injection, schedule: Q01DX Z (ip), vehicle: saline): 6 of 6 | survivor count (dose: 1.0 mg/kg/injection, schedule: Q01DX Z (ip), vehicle: saline): 6 of 6 | T/C (dose: 2.0 mg/kg/injection, schedule: Q01DX Z (ip), vehicle: saline): 126 % of control

O=C(Nc1ccc(C2=NCCN2)cc1)c1cccc(C(=O)Nc2ccc(C3=NCCN3)cc2)c1
survivor count (dose: 150.0 mg/kg/injection, schedule: Q01DX Z (ip), vehicle: carboxymethylcellulose (CMC)): 0 of 6
